# Like-named read-outs stand apart in the source and are kept apart here.
# Tested on: Sub7 (liver)
# Assay: IC50 of the referent molecules on Sub7 (liver) cells
# Assay type: cell-based
compound,measurement,setting,value
CC[C@H](CO)Nc1nc(NCc2ccccc2)c2ncn(C(C)C)c2n1 [Roscovitine],IC50,"24 h, read-out: IC50 μM Sub7 (liver) 24 h",10 µM
same,IC50,"48 h, read-out: IC50 μM Sub7 (liver) 48 h",4 µM

# Reference: patent publication US9034873B2, “Pyridazine and pyrrole compounds, processes for obtaining them and uses” (Centre National de la Recherche Scientifique (C.N.R.S.), priority 2006, dated 2015)
